In publication PMC3824344:
No constants are given. Whether binding was seen depends on the method and setting. Binding seen in cells or lysates may run through a third protein. Some binding calls cover weakened binding; strength is not graded here.

Protein sequences, listed by entry. Tags and fused reporters are not part of them.
UniProt Q9CXW3: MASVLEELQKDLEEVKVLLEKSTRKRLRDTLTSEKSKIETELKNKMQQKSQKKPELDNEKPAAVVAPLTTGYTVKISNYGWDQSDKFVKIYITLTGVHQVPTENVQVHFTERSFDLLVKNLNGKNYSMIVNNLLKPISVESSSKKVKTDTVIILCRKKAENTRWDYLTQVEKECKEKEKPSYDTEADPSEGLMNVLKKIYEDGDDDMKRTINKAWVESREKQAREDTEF
UniProt P63280: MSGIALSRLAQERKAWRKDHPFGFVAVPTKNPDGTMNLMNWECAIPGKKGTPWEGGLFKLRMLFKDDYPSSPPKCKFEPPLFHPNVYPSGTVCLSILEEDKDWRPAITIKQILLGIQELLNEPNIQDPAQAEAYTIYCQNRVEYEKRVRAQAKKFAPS

Molecular target: CacyBP/SIP-3xFLAG (Calcyclin binding protein and Siah-1 interacting protein, 3xFLAG-tagged) (mouse) (UniProt Q9CXW3)
Test: co-IP; NB2a cells co-transfected with Ubc9-HA and CacyBP/SIP-3xFLAG; 800 ug of extract protein incubated with anti-FLAG M2 agarose resin 3 h at 4 C in IP buffer (50 mM Tris-HCl pH 7.5, 50 mM KCl, 1 mM EDTA, 1 mM MgCl2, 0.1 % Triton X-100, 20 mM NEM); elution with 0.1 M glycine-HCl pH 3.5; Western blot with anti-Ubc9 and anti-CacyBP/SIP

“Ubc9-HA (E2 SUMO conjugating enzyme Ubc9, HA-tagged) (from UniProt P63280 1-158)” was tested, and the binding was “binds”.
